Test results taken from the supplement of paper PMC10849652.
Some of the results follow.

Protein sequences, listed by entry. Tags and fused reporters are not part of them. Lines headed by an entry give the natural chain unless they say otherwise; changes in a name come on top.
UniProt P14868: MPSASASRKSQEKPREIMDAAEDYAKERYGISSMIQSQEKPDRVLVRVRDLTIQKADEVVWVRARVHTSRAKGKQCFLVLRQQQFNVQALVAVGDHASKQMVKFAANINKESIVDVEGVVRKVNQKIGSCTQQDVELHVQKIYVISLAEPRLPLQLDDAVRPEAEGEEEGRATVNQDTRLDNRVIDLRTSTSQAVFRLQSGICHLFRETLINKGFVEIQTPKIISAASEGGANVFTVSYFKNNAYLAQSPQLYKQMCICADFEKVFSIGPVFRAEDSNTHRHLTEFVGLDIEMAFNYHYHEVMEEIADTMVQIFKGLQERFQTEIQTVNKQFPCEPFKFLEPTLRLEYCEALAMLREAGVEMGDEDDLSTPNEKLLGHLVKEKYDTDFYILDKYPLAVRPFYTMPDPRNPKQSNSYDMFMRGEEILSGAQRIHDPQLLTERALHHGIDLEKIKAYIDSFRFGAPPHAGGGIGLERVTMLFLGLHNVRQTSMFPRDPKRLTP
UniProt P99999: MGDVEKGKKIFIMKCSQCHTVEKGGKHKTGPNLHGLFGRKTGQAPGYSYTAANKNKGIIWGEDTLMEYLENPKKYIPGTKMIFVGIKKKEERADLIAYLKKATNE
UniProt Q05048: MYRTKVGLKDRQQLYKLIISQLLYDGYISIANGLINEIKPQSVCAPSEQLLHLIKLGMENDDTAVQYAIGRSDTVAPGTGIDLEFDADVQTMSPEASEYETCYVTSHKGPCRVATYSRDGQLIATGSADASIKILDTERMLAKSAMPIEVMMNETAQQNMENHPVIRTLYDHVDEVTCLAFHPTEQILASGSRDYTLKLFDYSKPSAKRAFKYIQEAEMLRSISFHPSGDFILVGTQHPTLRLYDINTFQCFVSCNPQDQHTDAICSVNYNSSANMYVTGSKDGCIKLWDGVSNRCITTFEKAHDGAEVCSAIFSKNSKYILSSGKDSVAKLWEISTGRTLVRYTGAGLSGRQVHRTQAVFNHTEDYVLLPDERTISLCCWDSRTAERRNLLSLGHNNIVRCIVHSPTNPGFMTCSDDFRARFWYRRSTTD
UniProt Q8WVC6: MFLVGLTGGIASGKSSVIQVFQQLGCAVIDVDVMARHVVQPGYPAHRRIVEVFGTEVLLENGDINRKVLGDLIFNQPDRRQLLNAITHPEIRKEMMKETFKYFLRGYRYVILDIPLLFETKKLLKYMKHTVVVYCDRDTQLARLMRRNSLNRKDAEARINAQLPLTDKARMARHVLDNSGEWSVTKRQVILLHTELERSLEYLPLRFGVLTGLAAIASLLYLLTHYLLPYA
UniProt P27707: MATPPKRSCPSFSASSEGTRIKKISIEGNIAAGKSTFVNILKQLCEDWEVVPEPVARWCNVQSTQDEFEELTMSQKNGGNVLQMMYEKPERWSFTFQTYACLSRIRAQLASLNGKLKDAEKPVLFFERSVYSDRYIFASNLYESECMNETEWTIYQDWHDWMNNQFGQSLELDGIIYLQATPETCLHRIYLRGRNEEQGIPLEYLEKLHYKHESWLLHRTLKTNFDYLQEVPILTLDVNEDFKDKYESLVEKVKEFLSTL
UniProt Q7L1T6: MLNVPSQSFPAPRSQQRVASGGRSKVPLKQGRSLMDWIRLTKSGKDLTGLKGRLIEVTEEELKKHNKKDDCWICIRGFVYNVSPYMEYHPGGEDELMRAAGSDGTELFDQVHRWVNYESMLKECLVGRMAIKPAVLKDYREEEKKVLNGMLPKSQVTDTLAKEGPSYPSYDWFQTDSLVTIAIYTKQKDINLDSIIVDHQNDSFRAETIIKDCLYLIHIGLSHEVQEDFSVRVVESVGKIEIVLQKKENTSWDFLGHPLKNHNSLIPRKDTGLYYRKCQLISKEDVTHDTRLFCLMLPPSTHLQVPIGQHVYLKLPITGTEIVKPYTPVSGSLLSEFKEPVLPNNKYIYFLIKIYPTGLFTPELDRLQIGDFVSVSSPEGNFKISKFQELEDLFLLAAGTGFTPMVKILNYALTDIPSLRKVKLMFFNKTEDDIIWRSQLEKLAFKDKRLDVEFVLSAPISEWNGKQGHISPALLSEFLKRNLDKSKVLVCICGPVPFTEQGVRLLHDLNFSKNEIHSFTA
UniProt Q69YN2: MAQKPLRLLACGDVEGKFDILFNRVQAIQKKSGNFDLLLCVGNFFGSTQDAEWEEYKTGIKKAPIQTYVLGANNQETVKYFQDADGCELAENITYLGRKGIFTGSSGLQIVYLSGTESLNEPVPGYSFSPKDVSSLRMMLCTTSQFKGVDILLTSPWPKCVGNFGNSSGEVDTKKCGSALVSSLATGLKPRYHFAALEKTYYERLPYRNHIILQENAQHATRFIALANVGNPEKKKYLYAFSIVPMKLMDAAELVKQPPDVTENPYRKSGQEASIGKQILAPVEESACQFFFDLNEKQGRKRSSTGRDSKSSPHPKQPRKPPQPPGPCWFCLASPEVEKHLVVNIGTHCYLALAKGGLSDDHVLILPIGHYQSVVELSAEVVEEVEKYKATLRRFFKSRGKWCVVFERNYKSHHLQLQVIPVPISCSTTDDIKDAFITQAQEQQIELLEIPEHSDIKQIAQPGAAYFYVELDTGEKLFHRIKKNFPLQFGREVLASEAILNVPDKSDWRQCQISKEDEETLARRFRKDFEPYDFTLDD
UniProt O43310: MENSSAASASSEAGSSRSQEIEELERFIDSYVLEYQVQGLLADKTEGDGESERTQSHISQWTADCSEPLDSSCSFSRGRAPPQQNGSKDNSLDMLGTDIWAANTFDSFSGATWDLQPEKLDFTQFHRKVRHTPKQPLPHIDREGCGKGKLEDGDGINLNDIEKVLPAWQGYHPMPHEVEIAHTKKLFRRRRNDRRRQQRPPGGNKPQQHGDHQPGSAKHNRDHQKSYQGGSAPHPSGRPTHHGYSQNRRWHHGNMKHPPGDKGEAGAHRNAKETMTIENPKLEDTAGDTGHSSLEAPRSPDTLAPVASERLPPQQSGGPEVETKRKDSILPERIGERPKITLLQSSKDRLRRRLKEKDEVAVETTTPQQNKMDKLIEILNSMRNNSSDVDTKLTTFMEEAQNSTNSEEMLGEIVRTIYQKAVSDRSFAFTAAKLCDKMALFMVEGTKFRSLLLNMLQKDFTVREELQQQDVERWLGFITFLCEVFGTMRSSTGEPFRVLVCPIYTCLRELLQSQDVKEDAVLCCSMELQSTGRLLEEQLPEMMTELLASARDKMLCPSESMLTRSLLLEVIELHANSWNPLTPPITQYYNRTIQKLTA
UniProt Q13616, whole entry, looked up: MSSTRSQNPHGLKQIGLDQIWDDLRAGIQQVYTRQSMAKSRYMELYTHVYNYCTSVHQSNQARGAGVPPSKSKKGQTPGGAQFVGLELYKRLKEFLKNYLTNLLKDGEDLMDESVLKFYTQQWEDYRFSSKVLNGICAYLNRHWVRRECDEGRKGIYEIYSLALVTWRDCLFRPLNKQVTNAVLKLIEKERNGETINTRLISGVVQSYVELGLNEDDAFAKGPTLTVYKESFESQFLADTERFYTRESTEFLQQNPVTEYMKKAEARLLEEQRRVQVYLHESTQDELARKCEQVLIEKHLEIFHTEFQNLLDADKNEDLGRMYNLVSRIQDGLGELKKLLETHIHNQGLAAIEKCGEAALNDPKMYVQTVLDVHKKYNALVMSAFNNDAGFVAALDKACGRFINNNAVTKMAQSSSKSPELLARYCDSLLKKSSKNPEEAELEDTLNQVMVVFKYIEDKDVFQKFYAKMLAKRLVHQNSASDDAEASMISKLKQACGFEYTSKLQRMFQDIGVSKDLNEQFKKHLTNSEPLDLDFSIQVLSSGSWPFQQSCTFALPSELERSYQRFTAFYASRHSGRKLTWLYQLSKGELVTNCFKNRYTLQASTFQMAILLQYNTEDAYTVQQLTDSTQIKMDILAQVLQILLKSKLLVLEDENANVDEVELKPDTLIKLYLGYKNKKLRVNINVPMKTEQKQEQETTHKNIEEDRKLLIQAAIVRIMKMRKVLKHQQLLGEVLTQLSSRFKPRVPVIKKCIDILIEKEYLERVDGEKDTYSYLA
UniProt P04080: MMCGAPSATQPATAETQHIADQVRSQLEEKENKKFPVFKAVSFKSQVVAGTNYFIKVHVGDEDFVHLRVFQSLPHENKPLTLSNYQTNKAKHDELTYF
UniProt Q13618, whole entry, looked up: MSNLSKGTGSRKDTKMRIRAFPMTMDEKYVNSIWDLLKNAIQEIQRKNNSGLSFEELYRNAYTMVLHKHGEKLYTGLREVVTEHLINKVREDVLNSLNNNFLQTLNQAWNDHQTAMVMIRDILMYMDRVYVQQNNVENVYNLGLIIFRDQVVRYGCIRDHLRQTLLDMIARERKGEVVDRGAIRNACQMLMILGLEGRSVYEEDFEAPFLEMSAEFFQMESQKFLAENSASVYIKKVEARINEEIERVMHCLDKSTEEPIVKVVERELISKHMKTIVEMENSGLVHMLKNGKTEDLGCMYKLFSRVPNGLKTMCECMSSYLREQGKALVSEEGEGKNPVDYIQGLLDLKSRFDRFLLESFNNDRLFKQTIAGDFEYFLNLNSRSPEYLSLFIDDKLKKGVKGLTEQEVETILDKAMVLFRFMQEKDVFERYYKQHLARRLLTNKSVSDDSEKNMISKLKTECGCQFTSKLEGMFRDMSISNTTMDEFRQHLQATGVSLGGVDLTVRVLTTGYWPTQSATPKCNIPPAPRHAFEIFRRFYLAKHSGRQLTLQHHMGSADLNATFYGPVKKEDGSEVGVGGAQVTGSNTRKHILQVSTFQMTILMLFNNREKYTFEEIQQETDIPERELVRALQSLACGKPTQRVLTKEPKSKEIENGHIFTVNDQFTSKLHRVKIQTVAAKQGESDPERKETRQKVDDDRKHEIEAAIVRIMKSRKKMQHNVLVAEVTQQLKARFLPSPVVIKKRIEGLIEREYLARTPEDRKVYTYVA
UniProt O00399, whole entry, looked up: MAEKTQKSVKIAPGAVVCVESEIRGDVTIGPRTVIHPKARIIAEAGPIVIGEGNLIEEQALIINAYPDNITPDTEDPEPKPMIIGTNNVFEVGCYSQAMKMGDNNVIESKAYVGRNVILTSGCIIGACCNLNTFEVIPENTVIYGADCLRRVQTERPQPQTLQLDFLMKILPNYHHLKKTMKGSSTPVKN
UniProt Q1MSJ5: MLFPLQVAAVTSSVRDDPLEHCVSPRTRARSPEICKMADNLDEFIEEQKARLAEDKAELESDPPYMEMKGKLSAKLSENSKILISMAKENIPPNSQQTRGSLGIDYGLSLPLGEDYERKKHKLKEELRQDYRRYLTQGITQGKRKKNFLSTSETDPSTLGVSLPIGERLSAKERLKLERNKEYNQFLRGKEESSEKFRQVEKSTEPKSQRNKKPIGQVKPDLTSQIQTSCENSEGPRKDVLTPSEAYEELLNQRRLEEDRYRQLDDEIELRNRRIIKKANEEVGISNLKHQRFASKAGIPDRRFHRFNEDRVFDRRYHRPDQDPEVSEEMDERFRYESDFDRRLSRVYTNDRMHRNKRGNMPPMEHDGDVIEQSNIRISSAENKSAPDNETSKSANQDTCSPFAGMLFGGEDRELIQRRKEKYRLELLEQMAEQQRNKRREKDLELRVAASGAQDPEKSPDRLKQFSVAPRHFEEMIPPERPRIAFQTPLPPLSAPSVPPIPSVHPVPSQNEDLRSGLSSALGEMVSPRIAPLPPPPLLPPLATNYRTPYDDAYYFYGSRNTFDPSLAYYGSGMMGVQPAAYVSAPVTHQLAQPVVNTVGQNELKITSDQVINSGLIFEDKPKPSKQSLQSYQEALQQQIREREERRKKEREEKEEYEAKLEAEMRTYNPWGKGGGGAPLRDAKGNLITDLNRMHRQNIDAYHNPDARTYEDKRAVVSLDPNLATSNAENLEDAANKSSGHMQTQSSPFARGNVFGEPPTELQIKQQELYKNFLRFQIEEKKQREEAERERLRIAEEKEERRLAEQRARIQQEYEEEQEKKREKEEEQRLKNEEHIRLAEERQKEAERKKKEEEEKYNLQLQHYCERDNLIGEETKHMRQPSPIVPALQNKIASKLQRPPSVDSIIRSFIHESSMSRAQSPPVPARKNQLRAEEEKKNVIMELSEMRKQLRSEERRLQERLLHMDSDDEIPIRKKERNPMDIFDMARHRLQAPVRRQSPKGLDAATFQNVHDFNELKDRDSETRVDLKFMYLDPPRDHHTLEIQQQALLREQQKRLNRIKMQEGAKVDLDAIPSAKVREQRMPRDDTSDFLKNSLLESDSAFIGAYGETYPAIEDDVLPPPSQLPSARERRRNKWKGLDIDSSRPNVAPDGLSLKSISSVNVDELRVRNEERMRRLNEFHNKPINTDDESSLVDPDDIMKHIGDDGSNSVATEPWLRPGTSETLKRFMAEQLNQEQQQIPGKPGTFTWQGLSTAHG
UniProt P0DMU9: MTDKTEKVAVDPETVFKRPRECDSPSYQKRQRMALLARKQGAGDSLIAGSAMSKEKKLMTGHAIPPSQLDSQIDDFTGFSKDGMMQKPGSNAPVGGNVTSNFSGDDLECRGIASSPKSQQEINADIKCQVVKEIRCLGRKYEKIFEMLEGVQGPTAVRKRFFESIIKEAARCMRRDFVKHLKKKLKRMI

Compound: C1=CC(=C(C=C1Cl)C2=NC3=NC=CN=C3C(=N2)NC4=CC=NC=C4)F
Assay: log2 fold change, soluble protein after heating vs DMSO (PISA); higher = thermal stabilisation; K562 cells, 10 uM, 30 min; active = over 0.2 and 3.5 SD of the protein, either way, in both replicates (recomputed)
In short: (§1)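 Aliquots of K562 cells (2×10^6 cells/mL) treated with 10 μM compound for 30 min were heated for 3 min over 48°C-58°C. After pooling and extraction in PBS with 0.5% NP-40 at 4°C, soluble protein from a 21,000xg, 90 min spin was quantified by TMTpro 16plex LC-MS/MS with channel sums equalised. Thermal stability is expressed against control samples, from duplicates, as a log2 fold change.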

log2 fold change, inactive:
CTPS2 (UniProt Q9NRF8) 0.03, CWC25 (UniProt Q9NXE8) -0.557, CYFIP2 (UniProt Q96F07) 0.022, CZIB (UniProt Q9NWV4) 0.038, DARS (UniProt P14868) -0.06, CYCS (UniProt P99999) -0.007, DARS2 (UniProt Q6PI48) 0.026, DAP3 (UniProt P51398) -0.139, CTBP1 (UniProt Q13363) 0.008, DCTN2 isoform 2 (UniProt Q13561) 0.08, CSTF1 (UniProt Q05048) 0, DCAKD (UniProt Q8WVC6) 0.079, DCK (UniProt P27707) 0.036, CYB5R4 (UniProt Q7L1T6) 0.025, CWF19L1 (UniProt Q69YN2) 0.028, DCAF11 (UniProt Q8TEB1) 0.05, CSTF2T (UniProt Q9H0L4) -0.027, CTU2 (UniProt Q2VPK5) 0.004, CUL2 isoform 2 (UniProt Q13617) 0.07, CTNNA2 (UniProt P26232) 0.038, CYB5R2 (UniProt Q6BCY4) 0.05, DCPS (UniProt Q96C86) 0.017, CTIF isoform 2 (UniProt O43310) -0.027, CUL1 (UniProt Q13616) 0.056, CTCF (UniProt P49711) -0.396, CSTB (UniProt P04080) 0.15, CUL3 (UniProt Q13618) 0.08, CTH (UniProt P32929) 0.062, CUL4B (UniProt K4DI93) 0.044, CYP20A1 (UniProt Q6UW02) 0.061, DCTN6 (UniProt O00399) -0.006, CYHR1 (UniProt E9PJD7) 0.081, CUTC (UniProt Q9NTM9) -0.04, DCP1A (UniProt Q9NPI6) -0.036, CSPP1 (UniProt Q1MSJ5) -0.028, DCAF1 (UniProt Q9Y4B6) 0.056, CT45A10 (UniProt P0DMU9) -0.337, CYB5R1 (UniProt Q9UHQ9) 0.053, DCTN3 (UniProt O75935) 0.015

Compound: C1=CC(=CC=C1C2=NC3=C(N2)C=C(C=C3)C(=O)N)OC4=CC=C(C=C4)Cl
Assay: as above
In short: as §1

log2 fold change, inactive:
CTPS2 (UniProt Q9NRF8) 0.007, CWC25 (UniProt Q9NXE8) 0.209, CYFIP2 (UniProt Q96F07) 0.027, CZIB (UniProt Q9NWV4) -0.003, DARS (UniProt P14868) 0.002, CYCS (UniProt P99999) 0.026, DARS2 (UniProt Q6PI48) 0.034, DAP3 (UniProt P51398) 0.138, CTBP1 (UniProt Q13363) 0.021, DCTN2 isoform 2 (UniProt Q13561) 0.011, CSTF1 (UniProt Q05048) 0.037, DCAKD (UniProt Q8WVC6) 0.033, DCK (UniProt P27707) -0.029, CYB5R4 (UniProt Q7L1T6) 0.021, CWF19L1 (UniProt Q69YN2) 0.004, DCAF11 (UniProt Q8TEB1) 0.033, CSTF2T (UniProt Q9H0L4) -0.021, CTU2 (UniProt Q2VPK5) 0.03, CUL2 isoform 2 (UniProt Q13617) 0.001, CTNNA2 (UniProt P26232) 0.025, CYB5R2 (UniProt Q6BCY4) 0.01, DCPS (UniProt Q96C86) 0.007, CTIF isoform 2 (UniProt O43310) 0.015, CUL1 (UniProt Q13616) -0.014, CTCF (UniProt P49711) 0.106, CSTB (UniProt P04080) 0.003, CUL3 (UniProt Q13618) 0.006, CTH (UniProt P32929) 0.005, CUL4B (UniProt K4DI93) -0.009, CYP20A1 (UniProt Q6UW02) 0.004, DCTN6 (UniProt O00399) 0.032, CYHR1 (UniProt E9PJD7) 0, CUTC (UniProt Q9NTM9) 0.033, DCP1A (UniProt Q9NPI6) 0.002, CSPP1 (UniProt Q1MSJ5) -0.019, DCAF1 (UniProt Q9Y4B6) 0.026, CT45A10 (UniProt P0DMU9) 0.028, CYB5R1 (UniProt Q9UHQ9) -0.001, DCTN3 (UniProt O75935) -0.006
